Laboratory results as given in article PMC2890414.
Residue numbers refer to the chain shown, from its start. Names may count otherwise. These are yes or no findings as the source states them, for the method shown. For part of these data: Binding can be weak; no strength is given. For part of these data: Binding seen in cells or lysates may run through a third protein. Values belong to the molecule of their own block, whether it stands above or below them.

The chains behind the UniProt entries cited, without tags or fusion partners. Where a name states a change or a piece, a line headed by the entry shows the natural chain unless it says otherwise.
UniProt P21333: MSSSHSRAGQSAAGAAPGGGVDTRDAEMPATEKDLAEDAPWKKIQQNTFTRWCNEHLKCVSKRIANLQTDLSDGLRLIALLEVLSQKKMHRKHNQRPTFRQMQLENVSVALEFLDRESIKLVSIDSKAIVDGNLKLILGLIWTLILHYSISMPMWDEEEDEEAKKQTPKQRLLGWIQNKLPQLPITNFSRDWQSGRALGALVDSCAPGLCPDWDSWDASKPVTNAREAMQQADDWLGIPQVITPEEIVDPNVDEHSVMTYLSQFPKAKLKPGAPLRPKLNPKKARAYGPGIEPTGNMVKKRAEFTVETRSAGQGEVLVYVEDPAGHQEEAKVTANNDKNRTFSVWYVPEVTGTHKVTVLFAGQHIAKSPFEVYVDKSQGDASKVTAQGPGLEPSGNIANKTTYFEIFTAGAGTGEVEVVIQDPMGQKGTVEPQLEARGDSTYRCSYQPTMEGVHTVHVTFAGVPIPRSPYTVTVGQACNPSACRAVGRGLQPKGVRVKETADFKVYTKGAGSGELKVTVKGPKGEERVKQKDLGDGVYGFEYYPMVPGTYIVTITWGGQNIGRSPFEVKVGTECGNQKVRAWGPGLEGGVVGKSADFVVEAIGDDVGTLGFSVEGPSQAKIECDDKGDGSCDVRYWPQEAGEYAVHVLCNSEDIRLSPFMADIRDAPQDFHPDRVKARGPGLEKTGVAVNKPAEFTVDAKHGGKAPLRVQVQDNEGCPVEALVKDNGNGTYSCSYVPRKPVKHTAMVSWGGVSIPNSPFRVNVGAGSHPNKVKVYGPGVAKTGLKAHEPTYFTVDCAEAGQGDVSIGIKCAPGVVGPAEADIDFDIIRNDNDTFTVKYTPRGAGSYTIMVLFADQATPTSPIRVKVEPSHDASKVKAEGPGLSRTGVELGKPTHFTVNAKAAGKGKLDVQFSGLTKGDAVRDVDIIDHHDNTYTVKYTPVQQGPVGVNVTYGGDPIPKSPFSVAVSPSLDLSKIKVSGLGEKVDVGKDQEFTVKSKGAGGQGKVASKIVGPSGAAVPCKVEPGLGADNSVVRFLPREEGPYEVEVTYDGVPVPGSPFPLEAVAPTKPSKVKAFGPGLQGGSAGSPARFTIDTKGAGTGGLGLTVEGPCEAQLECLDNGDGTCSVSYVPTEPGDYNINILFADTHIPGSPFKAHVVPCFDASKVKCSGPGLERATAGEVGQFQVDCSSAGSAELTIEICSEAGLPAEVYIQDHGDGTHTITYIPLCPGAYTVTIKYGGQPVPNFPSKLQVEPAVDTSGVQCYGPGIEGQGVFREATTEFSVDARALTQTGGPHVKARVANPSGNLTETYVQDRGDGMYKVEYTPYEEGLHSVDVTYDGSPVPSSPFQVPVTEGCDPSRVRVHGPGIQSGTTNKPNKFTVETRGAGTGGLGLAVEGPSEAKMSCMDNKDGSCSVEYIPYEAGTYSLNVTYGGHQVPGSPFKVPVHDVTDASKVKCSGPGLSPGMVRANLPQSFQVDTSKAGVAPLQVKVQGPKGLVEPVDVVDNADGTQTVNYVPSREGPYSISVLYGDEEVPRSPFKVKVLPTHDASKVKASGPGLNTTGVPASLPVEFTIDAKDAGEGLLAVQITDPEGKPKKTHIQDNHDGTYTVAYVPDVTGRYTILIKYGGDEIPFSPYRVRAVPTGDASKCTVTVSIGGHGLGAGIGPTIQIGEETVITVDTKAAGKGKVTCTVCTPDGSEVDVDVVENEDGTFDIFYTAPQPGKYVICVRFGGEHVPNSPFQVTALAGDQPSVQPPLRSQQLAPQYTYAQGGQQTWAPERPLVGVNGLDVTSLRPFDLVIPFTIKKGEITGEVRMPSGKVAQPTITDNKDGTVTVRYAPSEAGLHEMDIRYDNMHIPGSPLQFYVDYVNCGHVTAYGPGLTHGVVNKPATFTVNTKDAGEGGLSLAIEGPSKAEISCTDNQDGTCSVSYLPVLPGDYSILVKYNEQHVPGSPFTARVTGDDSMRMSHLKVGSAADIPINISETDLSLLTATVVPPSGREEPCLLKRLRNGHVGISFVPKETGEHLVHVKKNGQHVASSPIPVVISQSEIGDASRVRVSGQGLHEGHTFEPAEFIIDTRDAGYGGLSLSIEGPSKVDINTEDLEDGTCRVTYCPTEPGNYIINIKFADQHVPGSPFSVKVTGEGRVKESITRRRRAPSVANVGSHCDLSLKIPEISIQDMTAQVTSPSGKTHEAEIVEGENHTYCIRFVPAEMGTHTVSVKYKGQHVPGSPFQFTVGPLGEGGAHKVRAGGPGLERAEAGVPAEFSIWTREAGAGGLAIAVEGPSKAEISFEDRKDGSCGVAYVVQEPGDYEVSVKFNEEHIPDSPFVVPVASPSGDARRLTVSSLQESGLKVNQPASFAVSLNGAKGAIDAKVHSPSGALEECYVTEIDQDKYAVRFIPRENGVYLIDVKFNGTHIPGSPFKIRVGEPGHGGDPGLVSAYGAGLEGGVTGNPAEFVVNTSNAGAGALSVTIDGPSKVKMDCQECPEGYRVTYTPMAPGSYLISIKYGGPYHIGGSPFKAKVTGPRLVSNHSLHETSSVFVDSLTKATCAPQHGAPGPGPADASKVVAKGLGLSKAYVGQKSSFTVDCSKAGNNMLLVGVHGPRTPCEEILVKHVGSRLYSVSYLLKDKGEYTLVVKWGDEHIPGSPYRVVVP
UniProt Q8BTM8: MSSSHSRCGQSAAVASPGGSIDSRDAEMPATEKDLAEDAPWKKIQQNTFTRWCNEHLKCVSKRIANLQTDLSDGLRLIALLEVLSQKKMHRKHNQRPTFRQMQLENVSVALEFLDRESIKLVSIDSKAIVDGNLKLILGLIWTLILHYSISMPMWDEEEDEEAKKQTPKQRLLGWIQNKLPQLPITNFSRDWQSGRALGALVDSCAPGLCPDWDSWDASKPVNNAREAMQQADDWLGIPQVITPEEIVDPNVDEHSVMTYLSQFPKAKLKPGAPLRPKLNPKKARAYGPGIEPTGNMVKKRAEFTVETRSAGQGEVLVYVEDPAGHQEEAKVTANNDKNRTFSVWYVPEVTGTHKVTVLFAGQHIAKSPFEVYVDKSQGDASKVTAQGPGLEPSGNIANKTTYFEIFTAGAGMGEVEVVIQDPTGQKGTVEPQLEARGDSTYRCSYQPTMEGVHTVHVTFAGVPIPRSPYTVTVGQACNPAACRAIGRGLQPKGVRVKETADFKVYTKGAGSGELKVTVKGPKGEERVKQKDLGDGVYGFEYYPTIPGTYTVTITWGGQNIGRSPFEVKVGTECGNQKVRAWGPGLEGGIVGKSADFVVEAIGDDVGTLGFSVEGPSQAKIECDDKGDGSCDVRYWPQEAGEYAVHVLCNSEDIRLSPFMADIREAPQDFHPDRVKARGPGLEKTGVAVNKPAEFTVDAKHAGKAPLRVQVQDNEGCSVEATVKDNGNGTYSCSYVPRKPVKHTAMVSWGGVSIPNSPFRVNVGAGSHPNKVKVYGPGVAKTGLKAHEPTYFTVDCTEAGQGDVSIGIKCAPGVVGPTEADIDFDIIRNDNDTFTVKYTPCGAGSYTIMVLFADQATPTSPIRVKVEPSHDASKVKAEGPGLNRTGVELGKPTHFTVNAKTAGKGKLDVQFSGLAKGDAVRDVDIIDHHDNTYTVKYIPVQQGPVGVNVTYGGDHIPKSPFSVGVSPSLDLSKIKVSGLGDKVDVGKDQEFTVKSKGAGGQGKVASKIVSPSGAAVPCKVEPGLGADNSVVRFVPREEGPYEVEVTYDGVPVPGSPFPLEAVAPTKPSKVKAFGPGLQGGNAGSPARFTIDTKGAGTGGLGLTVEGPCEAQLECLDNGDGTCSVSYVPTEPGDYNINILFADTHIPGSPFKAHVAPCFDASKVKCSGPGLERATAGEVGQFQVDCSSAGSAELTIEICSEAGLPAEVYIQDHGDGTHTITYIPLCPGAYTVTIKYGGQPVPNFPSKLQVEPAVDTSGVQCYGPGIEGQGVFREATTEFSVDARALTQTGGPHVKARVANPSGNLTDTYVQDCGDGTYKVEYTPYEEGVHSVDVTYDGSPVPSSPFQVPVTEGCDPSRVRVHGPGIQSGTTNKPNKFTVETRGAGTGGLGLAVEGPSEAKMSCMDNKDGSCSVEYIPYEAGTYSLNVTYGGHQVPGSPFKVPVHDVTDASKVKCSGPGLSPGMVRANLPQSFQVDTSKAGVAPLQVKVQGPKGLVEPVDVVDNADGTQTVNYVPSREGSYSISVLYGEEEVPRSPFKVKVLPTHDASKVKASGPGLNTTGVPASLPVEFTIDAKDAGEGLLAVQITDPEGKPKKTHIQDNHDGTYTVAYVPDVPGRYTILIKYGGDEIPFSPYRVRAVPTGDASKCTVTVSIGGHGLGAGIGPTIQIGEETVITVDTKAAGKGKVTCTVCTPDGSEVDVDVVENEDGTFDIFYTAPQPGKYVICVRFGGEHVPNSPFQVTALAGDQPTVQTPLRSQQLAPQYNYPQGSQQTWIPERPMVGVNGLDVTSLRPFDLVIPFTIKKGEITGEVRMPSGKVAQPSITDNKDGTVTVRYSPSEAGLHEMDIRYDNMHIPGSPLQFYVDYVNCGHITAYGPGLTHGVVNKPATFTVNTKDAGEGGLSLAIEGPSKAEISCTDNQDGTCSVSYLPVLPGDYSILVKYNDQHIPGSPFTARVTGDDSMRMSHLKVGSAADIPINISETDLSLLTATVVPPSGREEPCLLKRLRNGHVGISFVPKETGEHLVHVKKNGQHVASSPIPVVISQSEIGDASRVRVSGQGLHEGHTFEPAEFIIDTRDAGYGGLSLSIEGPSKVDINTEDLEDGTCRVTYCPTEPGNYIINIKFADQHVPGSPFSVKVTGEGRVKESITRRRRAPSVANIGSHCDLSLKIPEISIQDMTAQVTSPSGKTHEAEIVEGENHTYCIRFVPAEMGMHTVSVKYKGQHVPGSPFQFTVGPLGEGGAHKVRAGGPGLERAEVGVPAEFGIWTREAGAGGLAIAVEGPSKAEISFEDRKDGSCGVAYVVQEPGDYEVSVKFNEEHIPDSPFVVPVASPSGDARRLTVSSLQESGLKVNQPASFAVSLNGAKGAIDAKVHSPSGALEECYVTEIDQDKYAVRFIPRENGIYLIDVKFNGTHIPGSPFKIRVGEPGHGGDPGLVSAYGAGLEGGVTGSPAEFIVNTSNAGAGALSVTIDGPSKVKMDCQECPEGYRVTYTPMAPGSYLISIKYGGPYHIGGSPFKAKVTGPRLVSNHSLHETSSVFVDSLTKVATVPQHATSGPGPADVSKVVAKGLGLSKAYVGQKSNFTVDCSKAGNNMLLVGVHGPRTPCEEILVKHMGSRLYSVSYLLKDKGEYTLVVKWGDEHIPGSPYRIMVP

Columns and labels:
[1] = target: R-Ras bait lacking the CAAX-box (BTM116-R-Ras-CAAX-) (human) (UniProt P10301); assay: two-hybrid; bait in pBTM116 in yeast strain L40, prey from a mouse embryo cDNA library in pVP16; growth on selective plates and β-gal filter-lift assay
[2] = target: GST-FLNa repeats 1-10 (human) (UniProt P21333); assay: pull-down; GST fusion proteins of FLNa fragments incubated with M2 (FLNa-) cell total lysates; bound R-Ras detected by Western blotting; only the target purified
[3] = target: His-tagged FLNaΔ3 (deletion of FLNa repeat 3) (UniProt P21333); assay: co-IP; M2 cells co-transfected, lysed 48 h post transfection, immunoprecipitated with anti-His conjugated IgG beads or IgG beads alone, immunoblotted with anti-R-Ras antibody

binding [1]: binds
Molecule: VP16-FLNa (nucleotides 1699-1995) (from UniProt Q8BTM8) (domain or fragment)

binding [2]: binds
B1: R-Ras in M2 (FLNa-) cell total lysate (protein, UniProt P10301 1-218)
chain: MSSGAASGTGRGRPRGGGPGPGDPPPSETHKLVVVGGGGVGKSALTIQFIQSYFVSDYDPTIEDSYTKICSVDGIPARLDILDTAGQEEFGAMREQYMRAGHGFLLVFAINDRQSFNEVGKLFTQILRVKDRDDFPVVLVGNKADLESQRQVPRSEASAFGASHHVAYFEASAKLRLNVDEAFEQLVRAVRKYQEQELPPSPPSAPRKKGGGCPCVLL

binding [3]: no binding
B2: active R-Ras G38V (protein, UniProt P10301 1-218)
chain: B1 chain with G38V
